Results published in patent US20120093811A1.
Positions count from the first letter of the chain named. No constants are given. Whether binding was seen depends on the method and setting. Some entries that bind do so weakly or less than the wild type. Each block holds one binder with its values, some of them ahead of it.

Amino acid sequences for entries named in this document (tags omitted). A change or cut given only in a name is not applied to a line headed by its entry.
UniProt O43915: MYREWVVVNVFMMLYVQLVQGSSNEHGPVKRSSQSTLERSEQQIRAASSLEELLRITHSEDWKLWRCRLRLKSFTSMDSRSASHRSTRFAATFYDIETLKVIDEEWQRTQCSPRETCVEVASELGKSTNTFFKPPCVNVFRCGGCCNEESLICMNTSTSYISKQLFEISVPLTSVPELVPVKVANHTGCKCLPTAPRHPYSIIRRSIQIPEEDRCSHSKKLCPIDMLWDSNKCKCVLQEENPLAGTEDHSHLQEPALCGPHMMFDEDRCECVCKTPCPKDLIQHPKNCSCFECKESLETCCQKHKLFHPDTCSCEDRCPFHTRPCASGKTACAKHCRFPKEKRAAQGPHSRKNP

Key:
[1] = target: Source 1 VEGF-D, mature dimeric recombinant human VEGF-D (CSIRO) (human) (UniProt O43915); assay: KD plotted against average IC50 of the VEGFR-2-Ba/F3 bioassay. The sheet names neither the KD method nor the VEGF-D form; paragraph 444 says 'KD of Source 1 VEGF-D' and Table 12 'Dimer KD'
[2] = target: Source 1 VEGF-D, mature dimeric recombinant human VEGF-D (CSIRO) (human) (UniProt O43915); assay: SPR (BIAcore), Protocols A and B, IgG on Source 1 VEGF-D dimer
[3] = target: Source 2 VEGF-D, purified recombinant human VEGF-D monomer (R&D Systems, Catalog Number 622-VD/CF) (human) (UniProt O43915); assay: SPR (BIAcore)

B1: humanized IgG antibody derived from clone F61 (antibody, V domains shown)
VH: QVQLVQSGAEVKQPGASVKVSCKASGYTFTGYNMYWVRQAPGQGLEWMGYIDPYNGDTTYNQKFKGRVTMTTDTSTSTAYMKLRSLRSDDTAVYYCARTSYYGGMDYWGRGTLVTVAS
VL: DIVMTQTPLSSPVTLGQPASISCRSSQSLVHSNGNTYLHWLQQRPGQPPRLLIYKVSNRFSGVPDRFSGSGAGTDFTLKISRVEAEDVGVYYCSQSTHVPRTFGQGTKLEIKR
binding [1]: binds

B2: humanized IgG antibody derived from clone AW61 (antibody, V domains shown)
VH: B1 VH with V68A
VL: B1 VL
binding [1]: binds

B3: humanized IgG antibody derived from clone DI26 (antibody, V domains shown)
VH: B1 VH with E10K, V20A, N55S, K82E
VL: B1 VL
binding [2]: binds

B8: Ig-1A, humanized IgG reformatted from scFv 1A (antibody, V domains shown)
VH: B1 VH with K82E
VL: B1 VL
binding [3]: binds

Now from value to binder:

binding [2]: binds
B4: humanized IgG antibody derived from clone HW78 (antibody, V domains shown)
VH: B1 VH with S25R, S77G
VL: B1 VL

binding [2]: binds
B5: humanized IgG antibody derived from clone HU75 (antibody, V domains shown)
VH: B1 VH
VL: B1 VL with S11G, Q105R

binding [2]: binds
B6: humanized IgG antibody derived from clone HH41 (antibody, V domains shown)
VH: B1 VH
VL: B1 VL with S32G

binding [2]: binds
B7: humanized IgG antibody derived from clone HH69 (antibody, V domains shown)
VH: B1 VH with E10K, V20A, N55S, K82E
VL: B1 VL with S11G, Q105R
